Assay results reported in paper PMC6176987, “Correction of cognitive deficits in mouse models of Down syndrome by a pharmacological inhibitor of DYRK1A” (Disease Models & Mechanisms, 2018).
These are yes or no findings as the source states them, for the method shown. Binding seen in cells or lysates may run through a third protein. Some binding calls cover weakened binding; strength is not graded here.

Tests used:
[1] = target: synapsin 1 (mouse (endogenous in wt mouse brain)) (UniProt O88935); assay: co-IP; endogenous proteins; RIPA lysate of fresh half brains of 3-month-old wt male mice; 1 ml extract with 2 µg antibody (anti-DYRK1A or anti-SYN1) at 4°C for 1 h, protein G agarose beads 30 min, washed three times with bead buffer; western blot
[2] = target: dual specificity tyrosine-phosphorylation-regulated kinase 1A (mouse (endogenous in wt mouse brain)) (UniProt Q61214); assay: as above

Row | binding [1] | binding [2] | Substance
1 | binds | – | dual specificity tyrosine-phosphorylation-regulated kinase 1A (from UniProt Q61214 1-763) (enzyme)
2 | – | binds | synapsin 1 (from UniProt O88935 1-706)
3 | – | binds | Calmodulin-dependent kinase 2A (from UniProt P11798 1-478) (enzyme)
